Data as given in PubChem BioAssay AID590 (National Center for Advancing Translational Sciences (NCATS), 2007).
Among all 59,000 compounds or so, about 6,500 (11%) were called active. Inconclusive means that the source gave no clear call. Such entries were picked first, then a sample of the others. No stated cut-off is given here; in the data, active means max dye-equivalent concentration above about 10 nM; inconclusive means mostly about 1.1 nM to 9.6 nM; inactive means weaker than that.

Experiment: qHTS Assay for Spectroscopic Profiling in A350 Spectral Region
Conditions: Compound autofluorescence, 340/450 nm, Alexa 350 dye-equivalents; stronger effect = higher value

Compound | max dye-equivalent concentration
O=C(NC1CCN(Cc2ccccc2)CC1)C1CCCN(S(=O)(=O)c2cccc3nonc23)C1 (stereo not given) | inactive
CCN(CC)CCn1c2ccccc2c2cnc(N=CN(C)C)c(C#N)c21 | active: 110 nM
c1cnc2c(SCc3ccc(-c4nnco4)cc3)cccc2c1 | active: 24 nM
COc1ccc(C(CNC(=O)COc2ccccc2C#N)N2CCOCC2)cc1 (stereo not given) | inconclusive: 1.7 nM
Cc1ccc2cc3cc(C(=O)N4CC(C)CC(C)C4)oc3nc2c1 (stereo not given) | inconclusive: 1.1 nM
Cc1ccc2c(c1)C(N1CCCC1=O)CC(c1ccco1)N2 (stereo not given) | active: 57 nM
CN1CCO[C@H](c2ccccc2)c2ccccc2C1 | inconclusive: 2.4 nM
CC(=O)Nc1c(C(=O)N2CCOCC2)sc2nc3c(cc12)COC(C)(C)C3 | inconclusive: 2 nM
CCOC(=O)Cn1cc(C(=O)c2cccs2)c2ccccc21 | inconclusive: 1.4 nM
Cc1nn(Cc2ccc(Cl)cc2Cl)c(C)c1NC(=O)c1nc2n(n1)C(C(F)F)CC(C)N2 (stereo not given) | inactive
C=C(C)Cn1c(-c2ccc(OC)cc2)nc2ccccc21 | inconclusive: 2.2 nM
COc1ccc(-c2nc3cnc(N4CCN(C)CC4)nc3n(Cc3cccs3)c2=O)cc1 | inconclusive: 2.7 nM
CCNC(=O)c1cc2c(=O)n3cccc(C)c3nc2n(Cc2ccc(C)cc2)c1=N | active: 6900 nM
CCC(=O)Nc1ccc(NC(=O)CN2CCCC(C)C2)c(Cl)c1 (stereo not given) | inactive
O=S(=O)(/N=S1/CC=CCN1S(=O)(=O)c1ccccc1)c1ccccc1 (stereo not given) | inactive
Cn1c(CCCCCN)nc2ccccc21 | inactive
Cc1ccc(C(=O)N(CC(=O)NC2CCCC2)Cc2cccs2)s1 | inactive
Oc1ccccc1C1=Nc2ncnn2C(c2ccccc2)C1 (stereo not given) | inconclusive: 4.3 nM
CCOC(=O)c1c(O)[nH]c(=O)c(CC)c1C | inconclusive: 2.6 nM
COc1ccc(CNc2nc3nc(C)c(Cl)c(C)n3n2)cc1OC | inconclusive: 4.4 nM
O=c1c(-c2ccco2)[n+]([O-])c2ccccc2n1OCc1ccccn1 | inconclusive: 8.1 nM
N#Cc1ccc(C23CC4CC(CC(C4)C2)C3)[nH]c1=O | active: 11 nM
COc1cccc(Cn2c(=O)c(-c3ccc(Cl)cc3)nc3cnc(N4CCOCC4)nc32)c1 | inconclusive: 7.8 nM

In a second layout: 13 of the compounds above
Compound	max dye-equivalent concentration
c1cnc2c(SCc3ccc(-c4nnco4)cc3)cccc2c1	active: 24 nM
COc1ccc(C(CNC(=O)COc2ccccc2C#N)N2CCOCC2)cc1 (stereo not given)	inconclusive: 1.7 nM
Cc1ccc2cc3cc(C(=O)N4CC(C)CC(C)C4)oc3nc2c1 (stereo not given)	inconclusive: 1.1 nM
Cc1ccc2c(c1)C(N1CCCC1=O)CC(c1ccco1)N2 (stereo not given)	active: 57 nM
CN1CCO[C@H](c2ccccc2)c2ccccc2C1	inconclusive: 2.4 nM
CC(=O)Nc1c(C(=O)N2CCOCC2)sc2nc3c(cc12)COC(C)(C)C3	inconclusive: 2 nM
CCOC(=O)Cn1cc(C(=O)c2cccs2)c2ccccc21	inconclusive: 1.4 nM
Cc1nn(Cc2ccc(Cl)cc2Cl)c(C)c1NC(=O)c1nc2n(n1)C(C(F)F)CC(C)N2 (stereo not given)	inactive
C=C(C)Cn1c(-c2ccc(OC)cc2)nc2ccccc21	inconclusive: 2.2 nM
COc1ccc(-c2nc3cnc(N4CCN(C)CC4)nc3n(Cc3cccs3)c2=O)cc1	inconclusive: 2.7 nM
CCNC(=O)c1cc2c(=O)n3cccc(C)c3nc2n(Cc2ccc(C)cc2)c1=N	active: 6900 nM
CCC(=O)Nc1ccc(NC(=O)CN2CCCC(C)C2)c(Cl)c1 (stereo not given)	inactive
O=S(=O)(/N=S1/CC=CCN1S(=O)(=O)c1ccccc1)c1ccccc1 (stereo not given)	inactive

(continued)

Compound | max dye-equivalent concentration
CS(=O)(=O)N(CCc1ccccc1)CC(=O)N1CCc2ccccc2C1 | active: 200 nM
COc1ccc(OC)c(-c2cc(C(=O)Nc3c(C)nn(Cc4ccccc4C)c3C)no2)c1 | inconclusive: 4.5 nM
COc1ncc2nc(-c3ccccc3)c(=O)n(CCc3ccccc3)c2n1 | inconclusive: 2.9 nM
COCCNc1nc(-c2cccc(OC)c2)nc2ccccc12 | inactive
O=C1c2ccncc2C(=O)N1CO | inconclusive: 1.1 nM
Nc1ccc2ncccc2c1N | inconclusive: 2.2 nM
Cc1ccc(NC(=O)CSc2n[nH]c(-c3ccncc3)n2)cc1C | inconclusive: 1.2 nM
CCSc1nc(C)nc2c1oc1ccccc12 | inconclusive: 1.2 nM
Cc1cc(C)c2[nH]c(=O)c(C(c3nnnn3Cc3ccc4c(c3)OCO4)N3CCC(C)CC3)cc2c1 (stereo not given) | inconclusive: 1.6 nM
Cn1c(=O)c(-c2ccc(Cl)cc2)nc2cnc(OCc3ccccc3)nc21 | inconclusive: 1.7 nM
CCN1CCCC1CN(Cc1cc2cc(OC)ccc2[nH]c1=O)C(=O)NCc1ccccc1 (stereo not given) | active: 260 nM
COc1ccc(-c2cc(NCCc3ccncc3)n3ncnc3n2)cc1 | inactive
CCNc1ncc2nc(-c3ccccc3)c(=O)n(C)c2n1 | active: 55 nM
c1ccc2c(c1)[nH]c1c(NCC3CCCO3)ncnc12 (stereo not given) | inconclusive: 5.6 nM
O=C1CC(c2ccc(S(=O)(=O)N3CCN(c4ccccc4)CC3)cc2)CN1 (stereo not given) | inactive
CCOC(=O)c1c(C)[nH]c(C(=O)OCC(=O)Nc2cc(C)ccc2OC)c1C | inactive
O=c1[nH]c2ccccc2nc1Cc1ccccc1 | active: 130 nM
COC(=O)c1cc(NCc2ccc3c(c2)OCO3)ccc1N1CCOCC1 | inconclusive: 1.5 nM
Cc1ncc(CO)c(CO)c1O | active: 16 nM
COC(=O)c1ccc2c(c1)NC(=O)C(N1CCCCC1)S2 (stereo not given) | inconclusive: 1.5 nM
Cc1cc(=O)oc2cc(OCC(=O)OCC(=O)NCc3ccc4c(c3)OCO4)ccc12 | active: 140 nM
CCOc1ccc(OCC)c(NC(=O)CN2CCC(NC(=O)c3cccc(F)c3)CC2)c1 | inactive
